Data as given in PubChem BioAssay AID1259308 (NCATS, 2017)
Assay: 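Knock-downs that increase output of a recombinant reporter protein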 (primary screen). Cell system: human HEK293 embryonic kidney cells stably expressing firefly luciferase (HEK-CMV-Luc2-Hygro). Knock-down reagent: single siRNA against human genes, 0.8 pmol siRNA per well. Duration: 72 h. Measurement: 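Reporter luminescence and viable-cell signal on separate replicate plates, given as percent of non-targeting control and median/MAD z-scores, plus per-cell luciferase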. Scale: total luciferase, z-score and total luciferase, % of control: higher = more reporter protein produced; luciferase per cell, z-score: higher = more reporter output per viable cell; viable cells, % of control: higher = more viable cells. Active means: 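Active when the median/MAD z-score for overall luciferase is greater than 3; a gene was taken forward for validation with new siRNAs if at least two of its three siRNAs passed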. Meaning of the calls: active = raised luciferase; inactive = no rise.
Shown is an unselected part of about 59,000 reagents. About 1,510 of them (2.6%) were called active. 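Calls use total luciferase alone and ignore viability, so some active siRNAs may act by altering cell number.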 Entries without a mark were called inactive. The numbers tell different reagents against one gene apart.

| gene symbol | reagent | total luciferase, z-score | total luciferase, % of control | luciferase per cell, z-score | viable cells, % of control |
| --- | --- | --- | --- | --- | --- |
| JADE3 (jade family PHD finger 3) | 1 | 0.928 | 100 | 0.223 | 106 |
| JADE3 (jade family PHD finger 3) | 2 | 0.163 | 85.1 | -0.086 | 97.3 |
| JADE3 (jade family PHD finger 3) | 3 | 0.0584 | 83 | 0.253 | 86.8 |
| CASTOR1 (cytosolic arginine sensor for mTORC1 subunit 1) | 1 | -0.496 | 72 | 0.415 | 72.2 |
| CASTOR1 (cytosolic arginine sensor for mTORC1 subunit 1) | 2 | -1.7 | 48 | -1.9 | 88.5 |
| CASTOR1 (cytosolic arginine sensor for mTORC1 subunit 1) | 3 | -2.15 | 39.1 | -2.08 | 75.5 |
| POGK (pogo transposable element derived with KRAB domain) | 1 | -1.53 | 51.5 | -1.28 | 80.7 |
| POGK (pogo transposable element derived with KRAB domain) | 2 | 0.416 | 90.2 | 1.43 | 69.2 |
| POGK (pogo transposable element derived with KRAB domain) | 3 | -0.0458 | 81 | 0.105 | 88 |
| ESPN (espin) | 1 | 0.522 | 92.3 | 1.33 | 72.6 |
| ESPN (espin) | 2 | -0.492 | 72.1 | -0.444 | 90.6 |
| ESPN (espin) | 3 | -0.694 | 68.1 | -1.03 | 99.7 |
| MLLT6 (MLLT6, PHD finger containing) | 1 | 0.815 | 98.1 | 2.01 | 64.6 |
| MLLT6 (MLLT6, PHD finger containing) | 2 | -0.628 | 69.4 | -0.824 | 96.3 |
| MLLT6 (MLLT6, PHD finger containing) | 3 | -0.277 | 76.4 | -0.042 | 86.3 |
| RPS26P28 (ribosomal protein S26 pseudogene 28) | 1 | -3.44 | 13.6 | -4.73 | 52.6 |
| RPS26P28 (ribosomal protein S26 pseudogene 28) | 2 | 0.517 | 92.2 | 0.614 | 87.6 |
| RPS26P28 (ribosomal protein S26 pseudogene 28) | 3 | -2.81 | 26 | -1.66 | 45.1 |
| NCK1 (NCK adaptor protein 1) | 1 | -0.978 | 62.4 | 0.0965 | 68 |
| NCK1 (NCK adaptor protein 1) | 2 | -0.134 | 79.2 | -0.667 | 106 |
| NCK1 (NCK adaptor protein 1) | 3 | -1.4 | 54 | -1.08 | 80.1 |
| NPM1P39 (nucleophosmin 1 pseudogene 39) | 1 | -0.622 | 69.5 | -0.709 | 93.6 |
| NPM1P39 (nucleophosmin 1 pseudogene 39) | 2 | 1.8 | 118 | 1.92 | 79.5 |
| NPM1P39 (nucleophosmin 1 pseudogene 39) | 3 | 0.471 | 91.2 | 0.172 | 97.4 |
| PSG4 (pregnancy specific beta-1-glycoprotein 4) | 1 | -1.41 | 53.9 | -0.945 | 77.2 |
| PSG4 (pregnancy specific beta-1-glycoprotein 4) | 2 | 1.01 | 102 | 1.25 | 82.1 |
| PSG4 (pregnancy specific beta-1-glycoprotein 4) | 3 | 0.955 | 101 | 1.04 | 85.6 |
| IFNL3 (interferon lambda 3) | 1 | 5.83 (active) | 198 | 3.93 | 78.5 |
| IFNL3 (interferon lambda 3) | 2 | 1.19 | 106 | 0.196 | 112 |
| IFNL3 (interferon lambda 3) | 3 | 2.83 | 138 | 2.33 | 83.5 |
| STK31 (serine/threonine kinase 31) | 1 | 2.37 | 129 | 2.02 | 84.6 |
| STK31 (serine/threonine kinase 31) | 2 | 2.68 | 135 | 1.71 | 96.4 |
| STK31 (serine/threonine kinase 31) | 3 | -1.68 | 48.5 | -0.756 | 66.1 |
| PRKAB1 (protein kinase AMP-activated non-catalytic subunit beta 1) | 1 | 0.253 | 86.9 | 1.1 | 72.8 |
| PRKAB1 (protein kinase AMP-activated non-catalytic subunit beta 1) | 2 | 0.784 | 97.5 | -0.233 | 116 |
| PRKAB1 (protein kinase AMP-activated non-catalytic subunit beta 1) | 3 | -0.458 | 72.8 | -0.42 | 90.8 |
| BOD1L1 (biorientation of chromosomes in cell division 1 like 1) | 1 | 3.35 (active) | 149 | 2.53 | 85.4 |
| BOD1L1 (biorientation of chromosomes in cell division 1 like 1) | 2 | 0.466 | 91.2 | 1.84 | 62.7 |
| BOD1L1 (biorientation of chromosomes in cell division 1 like 1) | 3 | 0.555 | 92.9 | 0.41 | 93.2 |

Entries listed above called active:
| gene symbol | reagent | total luciferase, z-score | total luciferase, % of control | luciferase per cell, z-score | viable cells, % of control |
| --- | --- | --- | --- | --- | --- |
| IFNL3 (interferon lambda 3) | 1 | 5.83 (active) | 198 | 3.93 | 78.5 |
| BOD1L1 (biorientation of chromosomes in cell division 1 like 1) | 1 | 3.35 (active) | 149 | 2.53 | 85.4 |
